Source: article PMC7053342
No constants are given. Whether binding was seen depends on the method and setting. In cells and extracts the contact can be indirect. Some binding calls cover weakened binding; strength is not graded here. For part of these data: Where a sequence is shown, tags or fusion partners need not be part of it.

Sequences of proteins named here, by UniProt entry; tags and fusion partners are left off.
UniProt P01106: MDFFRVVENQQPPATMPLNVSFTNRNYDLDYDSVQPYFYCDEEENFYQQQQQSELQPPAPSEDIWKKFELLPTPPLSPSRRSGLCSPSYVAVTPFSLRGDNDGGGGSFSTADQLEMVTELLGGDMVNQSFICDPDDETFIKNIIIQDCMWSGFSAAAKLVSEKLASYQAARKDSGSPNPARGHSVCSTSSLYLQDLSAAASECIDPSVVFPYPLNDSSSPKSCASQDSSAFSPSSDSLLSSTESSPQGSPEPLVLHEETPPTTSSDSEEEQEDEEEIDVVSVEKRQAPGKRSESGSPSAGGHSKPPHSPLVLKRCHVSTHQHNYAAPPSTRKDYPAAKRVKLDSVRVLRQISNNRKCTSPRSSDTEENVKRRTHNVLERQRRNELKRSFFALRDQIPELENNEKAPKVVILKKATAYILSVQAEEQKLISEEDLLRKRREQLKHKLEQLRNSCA
UniProt Q09472: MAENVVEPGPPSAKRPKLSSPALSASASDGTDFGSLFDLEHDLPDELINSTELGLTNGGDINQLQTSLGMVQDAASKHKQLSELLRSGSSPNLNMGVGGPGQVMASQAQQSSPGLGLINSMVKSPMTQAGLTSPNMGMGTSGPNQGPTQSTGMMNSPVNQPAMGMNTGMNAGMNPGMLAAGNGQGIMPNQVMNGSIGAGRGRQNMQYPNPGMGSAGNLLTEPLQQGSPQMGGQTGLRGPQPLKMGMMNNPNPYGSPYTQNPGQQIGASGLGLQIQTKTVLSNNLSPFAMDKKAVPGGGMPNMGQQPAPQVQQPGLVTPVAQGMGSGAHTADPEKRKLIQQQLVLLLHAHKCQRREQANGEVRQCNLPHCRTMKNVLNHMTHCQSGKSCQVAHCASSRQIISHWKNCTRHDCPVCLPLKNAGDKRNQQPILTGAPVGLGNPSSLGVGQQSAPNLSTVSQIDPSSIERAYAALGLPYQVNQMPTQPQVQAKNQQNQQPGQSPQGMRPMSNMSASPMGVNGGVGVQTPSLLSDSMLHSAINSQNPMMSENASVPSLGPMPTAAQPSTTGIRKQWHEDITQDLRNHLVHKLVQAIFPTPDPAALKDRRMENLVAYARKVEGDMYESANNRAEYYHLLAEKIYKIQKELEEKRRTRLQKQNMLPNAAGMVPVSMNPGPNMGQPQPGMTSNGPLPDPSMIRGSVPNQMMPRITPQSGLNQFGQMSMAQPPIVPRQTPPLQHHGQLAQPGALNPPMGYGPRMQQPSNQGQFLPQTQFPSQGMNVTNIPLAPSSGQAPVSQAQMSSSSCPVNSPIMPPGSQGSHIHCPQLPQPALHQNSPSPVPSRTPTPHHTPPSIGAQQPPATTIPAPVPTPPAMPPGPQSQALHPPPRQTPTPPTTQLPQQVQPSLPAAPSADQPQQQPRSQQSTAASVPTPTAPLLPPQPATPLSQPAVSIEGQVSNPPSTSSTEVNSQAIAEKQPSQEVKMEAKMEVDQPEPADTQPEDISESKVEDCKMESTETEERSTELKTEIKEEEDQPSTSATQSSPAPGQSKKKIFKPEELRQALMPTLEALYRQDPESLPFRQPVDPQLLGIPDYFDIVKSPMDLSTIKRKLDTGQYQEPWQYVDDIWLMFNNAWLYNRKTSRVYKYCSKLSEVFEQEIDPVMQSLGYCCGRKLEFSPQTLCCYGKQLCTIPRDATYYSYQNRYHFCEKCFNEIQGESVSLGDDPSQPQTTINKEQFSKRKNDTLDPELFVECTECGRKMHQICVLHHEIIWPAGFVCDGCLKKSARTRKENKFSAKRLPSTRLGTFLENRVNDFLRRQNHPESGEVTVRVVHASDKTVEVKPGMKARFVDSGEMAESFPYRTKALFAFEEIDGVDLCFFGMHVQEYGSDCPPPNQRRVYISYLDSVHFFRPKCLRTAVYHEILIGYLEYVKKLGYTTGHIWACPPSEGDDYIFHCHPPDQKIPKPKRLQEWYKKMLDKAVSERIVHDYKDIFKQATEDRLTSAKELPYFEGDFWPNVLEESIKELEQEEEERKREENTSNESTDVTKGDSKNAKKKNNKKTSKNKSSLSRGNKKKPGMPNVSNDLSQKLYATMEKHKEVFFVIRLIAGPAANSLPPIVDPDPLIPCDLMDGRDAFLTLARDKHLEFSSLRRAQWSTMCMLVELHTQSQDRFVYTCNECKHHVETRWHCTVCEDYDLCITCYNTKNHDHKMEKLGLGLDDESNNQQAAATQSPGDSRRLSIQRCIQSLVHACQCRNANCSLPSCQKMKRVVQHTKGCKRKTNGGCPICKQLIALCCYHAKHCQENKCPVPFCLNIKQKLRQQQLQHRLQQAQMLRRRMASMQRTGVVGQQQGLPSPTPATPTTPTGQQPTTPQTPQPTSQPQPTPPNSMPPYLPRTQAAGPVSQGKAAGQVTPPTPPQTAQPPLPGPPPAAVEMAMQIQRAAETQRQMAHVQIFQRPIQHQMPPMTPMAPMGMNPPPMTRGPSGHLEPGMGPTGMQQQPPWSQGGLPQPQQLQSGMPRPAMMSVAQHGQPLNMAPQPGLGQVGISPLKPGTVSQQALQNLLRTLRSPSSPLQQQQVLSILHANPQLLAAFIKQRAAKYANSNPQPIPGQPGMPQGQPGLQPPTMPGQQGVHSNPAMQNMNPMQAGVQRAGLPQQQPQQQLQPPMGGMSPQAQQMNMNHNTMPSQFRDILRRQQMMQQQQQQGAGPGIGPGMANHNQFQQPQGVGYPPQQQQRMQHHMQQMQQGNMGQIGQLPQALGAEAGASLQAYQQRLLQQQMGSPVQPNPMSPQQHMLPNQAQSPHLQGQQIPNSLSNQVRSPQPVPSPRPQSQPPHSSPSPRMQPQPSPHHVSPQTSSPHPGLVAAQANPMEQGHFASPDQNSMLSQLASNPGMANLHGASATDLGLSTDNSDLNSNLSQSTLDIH

Tests used:
[1] = molecular target: c-Myc (human (endogenous in CAC patient tissue)) (UniProt P01106); test: co-IP; endogenous proteins; cancerous tissue from a stage IV CAC patient immunoprecipitated with anti-c-Myc (anti-IgG as control); western blot for c-Myc, Max, p300 and CARM1
2×Flag-CARM1 = molecular target: T1, 2×Flag-CARM1 (UniProt Q86X55); test: co-IP; HT29 cells cotransfected with 2×Flag- and 6×Myc-tagged plasmids, 48 h, RIPA lysate split and incubated with anti-Flag agarose and anti-Myc agarose at 4°C overnight; western blot with anti-Flag and anti-Myc
T1 sequence: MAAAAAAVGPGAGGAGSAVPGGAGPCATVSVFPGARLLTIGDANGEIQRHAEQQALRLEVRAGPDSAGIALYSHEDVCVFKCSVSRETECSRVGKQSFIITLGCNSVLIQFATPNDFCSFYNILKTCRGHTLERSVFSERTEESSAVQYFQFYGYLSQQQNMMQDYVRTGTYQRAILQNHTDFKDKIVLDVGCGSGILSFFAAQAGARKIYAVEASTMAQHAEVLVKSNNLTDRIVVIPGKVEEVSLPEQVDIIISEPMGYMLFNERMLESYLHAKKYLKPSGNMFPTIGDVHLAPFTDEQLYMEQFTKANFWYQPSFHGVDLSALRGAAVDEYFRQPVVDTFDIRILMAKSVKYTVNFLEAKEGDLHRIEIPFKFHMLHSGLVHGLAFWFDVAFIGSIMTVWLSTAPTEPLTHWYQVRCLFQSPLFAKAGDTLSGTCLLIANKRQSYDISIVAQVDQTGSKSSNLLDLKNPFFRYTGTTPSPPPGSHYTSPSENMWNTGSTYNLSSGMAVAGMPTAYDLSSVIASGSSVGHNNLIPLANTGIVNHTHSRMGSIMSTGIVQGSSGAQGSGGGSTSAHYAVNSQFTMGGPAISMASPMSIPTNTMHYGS

2×Flag-c-Myc = 2×Flag-c-Myc (UniProt P01106); test: as above

## p300 (from UniProt Q09472 1-2414)
[1]
  binding: binds

## 6×Myc-p300 (from UniProt Q09472 1-2414)
2×Flag-CARM1
  binding: binds
2×Flag-c-Myc
  binding: binds
